For this assay, the target named is T1, GST-Pef1p (S. cerevisiae) (UniProt P53238).
T1 sequence: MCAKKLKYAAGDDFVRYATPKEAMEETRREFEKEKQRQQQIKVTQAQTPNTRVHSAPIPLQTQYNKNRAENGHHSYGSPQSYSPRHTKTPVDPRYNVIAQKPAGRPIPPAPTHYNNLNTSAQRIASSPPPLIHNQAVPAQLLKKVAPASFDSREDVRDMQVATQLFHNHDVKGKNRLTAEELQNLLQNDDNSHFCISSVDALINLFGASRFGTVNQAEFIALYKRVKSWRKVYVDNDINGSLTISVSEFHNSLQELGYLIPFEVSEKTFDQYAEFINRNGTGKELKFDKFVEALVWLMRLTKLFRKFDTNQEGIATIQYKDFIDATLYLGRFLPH
The experiment in a line: pull-down; GST fusion or GST (40 nM) and Sec13/31p (80 nM) with 1 mM CaCl2, glutathione-Sepharose beads, 4°C 2 h, 20 mM HEPES-KOH pH 8.0, 160 mM potassium acetate, 0.1% Triton X-100; immunoblot with anti-Sec31p; both purified. Background: A western blot detects proteins with antibodies after separation by electrophoresis.

Amino acid sequences for entries named in this document (tags omitted). A change or cut given only in a name is not applied to a line headed by its entry.
UniProt Q04491: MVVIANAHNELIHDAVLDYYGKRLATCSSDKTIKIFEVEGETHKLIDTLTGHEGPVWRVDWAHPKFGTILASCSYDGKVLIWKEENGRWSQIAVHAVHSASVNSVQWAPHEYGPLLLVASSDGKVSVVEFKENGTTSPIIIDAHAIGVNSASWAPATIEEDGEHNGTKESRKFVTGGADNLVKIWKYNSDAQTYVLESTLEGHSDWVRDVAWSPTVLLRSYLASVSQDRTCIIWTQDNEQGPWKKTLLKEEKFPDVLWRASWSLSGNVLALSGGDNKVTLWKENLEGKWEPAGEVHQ

Results are given in words; binding and its absence hold for the method and conditions named. Sequences can lack the tags named with a protein.

Regarding “Sec13/31p complex (from UniProt Q04491 1-297; P38968 1-1273)”, the binding result was “no binding (condition: with 1 mM CaCl2)”.

(Values after PMC3394733.)
